Numbering of substitutions follows the chain as printed. Results are given in words; binding and its absence hold for the method and conditions named.
T1: wild-type human small heat shock protein HspB8 (human) (UniProt Q9UJY1)
T1 sequence: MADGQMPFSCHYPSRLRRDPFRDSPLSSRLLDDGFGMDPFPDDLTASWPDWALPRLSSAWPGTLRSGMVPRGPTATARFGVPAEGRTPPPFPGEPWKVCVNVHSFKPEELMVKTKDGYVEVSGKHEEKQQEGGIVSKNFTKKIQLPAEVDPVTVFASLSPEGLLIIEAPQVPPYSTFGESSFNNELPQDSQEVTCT

The chains behind the UniProt entries cited, without tags or fusion partners. Where a name states a change or a piece, a line headed by the entry shows the natural chain unless it says otherwise. A line that says so, or that is headed by a name, gives the form on record, which may keep a tag or linker.
UniProt P04792: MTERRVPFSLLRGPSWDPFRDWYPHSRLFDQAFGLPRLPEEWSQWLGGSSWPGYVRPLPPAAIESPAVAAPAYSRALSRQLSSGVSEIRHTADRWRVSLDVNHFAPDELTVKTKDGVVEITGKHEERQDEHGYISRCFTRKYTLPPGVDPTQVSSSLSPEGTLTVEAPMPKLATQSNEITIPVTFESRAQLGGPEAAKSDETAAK
HspB1 Δ26–30 (P04792, form named): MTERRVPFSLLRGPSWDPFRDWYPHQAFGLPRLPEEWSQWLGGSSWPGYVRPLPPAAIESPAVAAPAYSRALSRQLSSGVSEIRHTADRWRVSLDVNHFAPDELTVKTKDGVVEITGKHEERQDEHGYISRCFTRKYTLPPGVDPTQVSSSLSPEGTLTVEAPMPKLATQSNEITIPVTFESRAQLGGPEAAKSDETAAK

T2: wild-type human small heat shock protein HspB5 (human) (UniProt P02511)
T2 sequence: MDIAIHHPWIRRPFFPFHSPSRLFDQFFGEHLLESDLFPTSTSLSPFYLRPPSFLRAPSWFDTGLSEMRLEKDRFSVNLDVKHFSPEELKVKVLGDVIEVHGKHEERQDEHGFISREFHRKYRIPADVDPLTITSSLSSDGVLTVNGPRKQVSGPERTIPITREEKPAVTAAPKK

T3: HspB8 R29A (human) (UniProt Q9UJY1)
T3 sequence: T1 sequence with R29A

T4: HspB8 Δ28–32 (human) (UniProt Q9UJY1)
T4 sequence: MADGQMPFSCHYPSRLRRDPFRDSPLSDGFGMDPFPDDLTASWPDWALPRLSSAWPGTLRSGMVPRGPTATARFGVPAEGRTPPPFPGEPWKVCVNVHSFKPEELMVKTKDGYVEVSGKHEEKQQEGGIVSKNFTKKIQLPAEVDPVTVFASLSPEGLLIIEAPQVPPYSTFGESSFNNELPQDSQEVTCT

T5: wild-type human small heat shock protein HspB6 (human) (UniProt O14558)
T5 sequence: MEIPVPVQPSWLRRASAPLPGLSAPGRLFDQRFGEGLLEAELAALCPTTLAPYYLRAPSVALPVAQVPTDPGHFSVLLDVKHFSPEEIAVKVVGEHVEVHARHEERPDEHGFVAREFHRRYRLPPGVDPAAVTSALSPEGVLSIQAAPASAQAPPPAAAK

T6: HspB6 R27A (human, UniProt O14558 1-160, R27A)
T6 construct: also called R/A HspB6; R/A mutant of HspB6; source: E. coli BL21(DE3) pLysS, purified (ammonium sulfate, HiTrap Phenyl-Sepharose, Superdex 200)
T6 sequence (looked up): T5 sequence with R27A

T7: HspB6 Δ26–30 (human, UniProt O14558 1-160, Δ26–30)
T7 construct: also called Δ HspB6; Δ mutant of HspB6; source: E. coli BL21(DE3) pLysS, purified (ammonium sulfate, HiTrap Phenyl-Sepharose, Superdex 200)
T7 sequence (looked up): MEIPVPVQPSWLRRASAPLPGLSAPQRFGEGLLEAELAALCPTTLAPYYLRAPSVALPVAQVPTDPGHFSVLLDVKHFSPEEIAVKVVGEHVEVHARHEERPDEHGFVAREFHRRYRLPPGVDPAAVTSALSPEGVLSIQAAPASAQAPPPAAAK

B1: wild-type human small heat shock protein HspB5 (natural protein, UniProt P02511 1-175, looked up)
chain: T2 sequence
notes: WT cDNA in pET22b or pET23a, parent of the full-size mutants; No tag is named; Forms large homooligomers; also called WT HspB5; source: E. coli BL21(DE3) pLysS, purified (ammonium sulfate, HiTrap Q, Superdex 200)
B2: HspB5 R22A (natural protein, human, UniProt P02511 1-175, looked up)
chain: T2 sequence with R22A
notes: also called R/A HspB5; R/A mutant of HspB5; source: E. coli BL21(DE3) pLysS, purified (ammonium sulfate, HiTrap Q, Superdex 200)
B3: HspB5 Δ21–25 (natural protein, human, UniProt P02511 1-175, looked up)
chain: MDIAIHHPWIRRPFFPFHSPQFFGEHLLESDLFPTSTSLSPFYLRPPSFLRAPSWFDTGLSEMRLEKDRFSVNLDVKHFSPEELKVKVLGDVIEVHGKHEERQDEHGFISREFHRKYRIPADVDPLTITSSLSSDGVLTVNGPRKQVSGPERTIPITREEKPAVTAAPKK
notes: also called Δ HspB5; Δ mutant of HspB5; source: E. coli BL21(DE3) pLysS, purified (ammonium sulfate, HiTrap Q, Superdex 200)

Assays:
[1] = target: T1, wild-type human small heat shock protein HspB8 (human); test: SEC; equimolar mixture (30–40 µM each), reduced, preincubated 1 h at 4 °C in buffer B (20 mM Tris-acetate, 150 mM NaCl, 0.1 mM EDTA, 15 mM mercaptoethanol); Superdex 200 HR 10/30; fractions on SDS gels; correlation coefficient and molar ratio from band intensities; both purified
[2] = target: T2, wild-type human small heat shock protein HspB5 (human); test: condition: only preincubated at 4 °C (without heating); 30–40 µM each; ion-exchange chromatography; equimolar mixture (30–40 µM each), reduced, preincubated 1 h at 4 °C in buffer D (20 mM phosphate pH 6.8, 0.1 mM PMSF, 15 mM mercaptoethanol); DEAE HiTrap, gradient 0–500 mM NaCl; fractions on SDS gels; correlation coefficient and molar ratio from band intensities; both purified
[3] = target: T1, wild-type human small heat shock protein HspB8 (human); test: SEC; equimolar mixture (30–40 µM each), reduced, preincubated 1 h at 42 °C in buffer B (20 mM Tris-acetate, 150 mM NaCl, 0.1 mM EDTA, 15 mM mercaptoethanol); Superdex 200 HR 10/30; fractions on SDS gels; correlation coefficient and molar ratio from band intensities; both purified
HspB8 R29A (human) [4] = target: T3, HspB8 R29A (human); test: SEC; equimolar mixture (30–40 µM each), reduced, preincubated 1 h at 4 °C in buffer B (20 mM Tris-acetate, 150 mM NaCl, 0.1 mM EDTA, 15 mM mercaptoethanol); Superdex 200 HR 10/30; fractions on SDS gels; correlation coefficient and molar ratio from band intensities; both purified
HspB8 Δ28–32 (human) [5] = target: T4, HspB8 Δ28–32 (human); test: as above
[6] = target: T5, wild-type human small heat shock protein HspB6 (human); test: condition: only preincubated at 4 °C (without heating); 30–40 µM each; SEC; equimolar mixture (30–40 µM each), reduced, preincubated 1 h at 4 °C in buffer B (20 mM Tris-acetate, 150 mM NaCl, 0.1 mM EDTA, 15 mM mercaptoethanol); Superdex 200 HR 10/30; fractions on SDS gels; correlation coefficient and molar ratio from band intensities; both purified
HspB6 R27A = target: T6, HspB6 R27A; test: as above
HspB6 Δ26–30 = target: T7, HspB6 Δ26–30; test: as above
[7] = target: T1, wild-type human small heat shock protein HspB8 (human); test: SEC; equimolar mixture (30–40 µM each), reduced, preincubated 1 h at 42 °C in buffer B (20 mM Tris-acetate, 150 mM NaCl, 0.1 mM EDTA, 15 mM mercaptoethanol); Superdex 200 HR 10/30; fractions on SDS gels; correlation coefficient and molar ratio from band intensities; both purified; remark: listed apart in the source
HspB8 R29A (human) [8] = target: T3, HspB8 R29A (human); test: as above
HspB8 Δ28–32 (human) [9] = target: T4, HspB8 Δ28–32 (human); test: as above

Row | binding [1] | binding [2] | binding [3] | binding (HspB8 R29A (human) [4]) | binding (HspB8 Δ28–32 (human) [5]) | binding [6] | binding (HspB6 R27A) | binding (HspB6 Δ26–30) | binding [7] | binding (HspB8 R29A (human) [8]) | binding (HspB8 Δ28–32 (human) [9]) | Molecule
1 | no binding (tested: 30–40 µM each) | no binding | no binding (tested: 30–40 µM each) |  |  |  |  |  |  |  |  | HspB1 Δ26–30 (from UniProt P04792 1-205)
2 | no binding (tested: 30–40 µM each) | no binding | no binding (tested: 30–40 µM each) |  |  |  |  |  |  |  |  | HspB1 R27A (from UniProt P04792 1-205)
3 | no binding (tested: 30–40 µM each) |  |  | no binding (tested: 30–40 µM each) | no binding (tested: 30–40 µM each) | no binding | no binding | no binding | no binding (tested: 30–40 µM each) | no binding (tested: 30–40 µM each) | no binding (tested: 30–40 µM each) | B1
4 | no binding (tested: 30–40 µM each) |  |  |  |  | no binding |  |  | no binding (tested: 30–40 µM each) |  |  | B2
5 | no binding (tested: 30–40 µM each) |  |  |  |  | no binding |  |  | no binding (tested: 30–40 µM each) |  |  | B3

Source: PMC7352286, “The Heterooligomerization of Human Small Heat Shock Proteins Is Controlled by Conserved Motif Located in the N-Terminal Domain” (International Journal of Molecular Sciences, 2020)
